These are yes or no findings as the source states them, for the method shown. Some binding calls cover weakened binding; strength is not graded here. Tags and fused reporters may be left off the sequences shown.
Molecular target: T1, ScVps53 (yeast two-hybrid fusion) (Saccharomyces cerevisiae) (UniProt P47061)
T1 sequence: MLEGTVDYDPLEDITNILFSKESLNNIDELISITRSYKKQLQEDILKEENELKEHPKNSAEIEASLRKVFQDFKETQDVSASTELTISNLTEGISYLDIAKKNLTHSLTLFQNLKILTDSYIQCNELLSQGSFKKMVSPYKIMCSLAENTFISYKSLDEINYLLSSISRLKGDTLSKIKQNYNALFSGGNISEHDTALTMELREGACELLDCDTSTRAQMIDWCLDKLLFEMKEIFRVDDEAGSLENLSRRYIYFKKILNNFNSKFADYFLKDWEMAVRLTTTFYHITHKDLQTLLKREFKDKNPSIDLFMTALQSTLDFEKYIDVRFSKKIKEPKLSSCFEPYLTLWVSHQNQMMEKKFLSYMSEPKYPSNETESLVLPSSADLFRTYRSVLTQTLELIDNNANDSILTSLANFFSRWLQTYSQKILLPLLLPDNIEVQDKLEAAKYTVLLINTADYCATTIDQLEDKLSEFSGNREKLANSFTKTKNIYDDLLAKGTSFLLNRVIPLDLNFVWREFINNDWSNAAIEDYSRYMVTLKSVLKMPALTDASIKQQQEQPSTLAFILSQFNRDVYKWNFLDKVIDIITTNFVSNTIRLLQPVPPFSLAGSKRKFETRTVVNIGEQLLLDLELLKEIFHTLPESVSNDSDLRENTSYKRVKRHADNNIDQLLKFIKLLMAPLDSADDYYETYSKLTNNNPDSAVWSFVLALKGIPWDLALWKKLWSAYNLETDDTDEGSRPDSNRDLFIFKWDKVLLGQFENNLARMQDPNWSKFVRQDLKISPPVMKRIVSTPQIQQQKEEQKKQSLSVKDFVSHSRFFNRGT
Experiment: two-hybrid

B1: ScVps35 (yeast two-hybrid fusion) (protein, UniProt P34110 1-944)
chain: MAYADSPENAIAVIKQRTALMNRCLSQHKLMESLQHTSIMLTELRNPNLSPKKYYELYVIIFDSLTNLSTYLIENHPQNHHLADLYELVQYTGNVVPRLYLMITVGTSYLTFNEAPKKEILKDMIEMCRGVQNPIRGLFLRYYLSQRTKELLPEDDPSFNSQFIMNNFIEMNKLWVRLQHQGPLRERETRTRERKELQILVGSQLVRLSQIIDDNFQMYKQDILPTILEQVIQCRDLVSQEYLLDVICQVFADEFHLKTLDTLLQTTLHLNPDVSINKIVLTLVDRLNDYVTRQLEDDPNATSTNAYLDMDVFGTFWDYLTVLNHERPDLSLQQFIPLVESVIVLSLKWYPNNFDNLNKLFELVLQKTKDYGQKNISLESEHLFLVLLSFQNSKLQLTSSTTAPPNSPVTSKKHFIFQLISQCQAYKNILALQSISLQKKVVNEIIDILMDREVEEMADNDSESKLHPPGHSAYLVIEDKLQVQRLLSICEPLIISRSGPPANVASSDTNVDEVFFNRHDEEESWILDPIQEKLAHLIHWIMNTTSRKQTMKNKIQFSLEAQLEILLLIKSSFIKGGINVKYTFPAIITNFWKLMRKCRMIQEYLLKKRPDNKTLLSHYSNLLKQMFKFVSRCINDIFNSCNNSCTDLILKLNLQCAILADQLQLNEISYDFFSQAFTIFEESLSDSKTQLQALIYIAQSLQKTRSLYKEAYYDSLIVRCTLHGSKLLKKQDQCRAVYLCSHLWWATEISNIGEEEGITDNFYRDGKRVLECLQRSLRVADSIMDNEQSCELMVEILNRCLYYFIHGDESETHISIKYINGLIELIKTNLKSLKLEDNSASMITNSISDLHITGENNVKASSNADDGSVITDKESNVAIGSDGTYIQLNTLNGSSTLIRGVVATASGSKLLHQLKYIPIHHFRRTCEYIESQREVDDRFKVIYV
B1 was tested, and the binding was “binds”.
